Reference: PubChem BioAssay AID493246 (Drosophila RNAi Screening Center, 2011)
Test: 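Identify essential fly genes by loss of cell viability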 (primary screen). Cell system: Drosophila Kc and S2R+ cells. Knock-down reagent: long dsRNA against Drosophila genes. Measured: 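Cell number per well after knock-down, printed as raw plate values; calls were based on per-plate z-scores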. Scale: Kc cell number and S2R+ cell number: higher = more cells remaining. Call rule: 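Counted as a hit if cell number falls by a z-score of at least 3 within its plate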.
The screen tested about 21,000 reagents; below is a random part of those with a known target gene and a result. Over the whole deposit, 429 (2%) were called active. 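Values are raw and not normalised between plates; calls rest on per-plate z-scores that were not deposited.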 Entries without a mark were called inactive. Not stated in the record: the amount of reagent, the time to read-out.

Kc cell number, rep 1 | Kc cell number, rep 2 | S2R+ cell number, rep 1 | S2R+ cell number, rep 2 | gene | PubChem SID
1.49e6 | 1.60e6 | 1.28e6 | 1.43e6 | Cyp6a15Psi (pseudo) | SID104187169
9.65e5 | 1.09e6 | 8.58e5 | 7.03e5 | CG6443 | SID104182750
1.37e6 | 1.41e6 | 1.05e6 | 1.19e6 | CG15458 | SID104200321
1.27e6 | 1.26e6 | 1.10e6 | 1.05e6 | Mcm10 (Minichromosome maintenance 10) | SID104182954
1.57e6 | 1.67e6 | 1.05e6 | 1.23e6 | CG9672 | SID104199993
1.20e6 | 1.38e6 | 7.94e5 | 8.96e5 | SmF (Small ribonucleoprotein particle protein SmF) | SID104187189
1.40e6 | 1.42e6 | 9.83e5 | 1.06e6 | Kul (Kuzbanian-like) | SID104195196
1.59e6 | 1.60e6 | 1.28e6 | 1.36e6 | c(2)M (crossover suppressor on 2 of Manheim) | SID104181714
1.36e6 | 1.35e6 | 1.04e6 | 1.12e6 | Pus1 (Pseudouridine synthase 1) | SID104195340
1.56e6 | 1.61e6 | 1.22e6 | 1.33e6 | gprs | SID104186553
1.59e6 | 1.55e6 | 1.18e6 | 1.33e6 | CG8850 | SID104187079
1.53e6 | 1.55e6 | 1.11e6 | 1.20e6 | upd3 (unpaired 3) | SID104199428
1.49e6 | 1.52e6 | 1.11e6 | 1.16e6 | upd3 (unpaired 3) | SID104199760
1.20e6 | 1.25e6 | 9.88e5 | 1.12e6 | Mid1 | SID104184022
1.70e6 | 1.75e6 | 1.39e6 | 1.44e6 | Mid1 | SID104184023
1.72e6 | 1.75e6 | 1.31e6 | 1.41e6 | Mid1 | SID104184100
1.37e6 | 1.41e6 | 1.22e6 | 1.16e6 | CG1136 | SID104187976
1.56e6 | 1.64e6 | 1.26e6 | 1.32e6 | CG7183 | SID104196002
1.25e6 | 1.43e6 | 9.00e5 | 1.05e6 | eIF2alpha (eukaryotic translation initiation factor 2 subunit alpha) | SID104200119
1.54e6 | 1.58e6 | 1.11e6 | 1.19e6 | CAH16 (Carbonic anhydrase 16) | SID104195163
1.22e6 | 1.22e6 | 1.07e6 | 1.17e6 | zip (zipper) | SID104184517
1.59e6 | 1.66e6 | 1.36e6 | 1.42e6 | CG4702 | SID104195418
1.36e6 | 1.31e6 | 1.07e6 | 1.23e6 | CG4576 | SID104195396
1.50e6 | 1.54e6 | 1.00e6 | 1.19e6 | CG15382 | SID104180189

Targets listed so far whose target name starts with U or u (2):
Kc cell number, rep 1 | Kc cell number, rep 2 | S2R+ cell number, rep 1 | S2R+ cell number, rep 2 | gene | PubChem SID
1.53e6 | 1.55e6 | 1.11e6 | 1.20e6 | upd3 (unpaired 3) | SID104199428
1.49e6 | 1.52e6 | 1.11e6 | 1.16e6 | upd3 (unpaired 3) | SID104199760
